## Screening data, single-dose tests

The chains behind the UniProt entries cited, without tags or fusion partners.
UniProt P9WFT3, whole entry: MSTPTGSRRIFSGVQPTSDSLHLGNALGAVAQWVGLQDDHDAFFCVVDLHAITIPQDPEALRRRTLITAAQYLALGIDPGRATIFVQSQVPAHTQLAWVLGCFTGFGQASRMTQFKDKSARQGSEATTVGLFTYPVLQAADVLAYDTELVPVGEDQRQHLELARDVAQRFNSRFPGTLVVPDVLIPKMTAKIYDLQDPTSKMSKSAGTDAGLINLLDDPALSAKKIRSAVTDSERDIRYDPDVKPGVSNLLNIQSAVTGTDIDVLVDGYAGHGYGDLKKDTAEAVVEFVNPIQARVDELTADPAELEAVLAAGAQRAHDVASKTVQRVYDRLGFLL
UniProt I6X8D2, whole entry: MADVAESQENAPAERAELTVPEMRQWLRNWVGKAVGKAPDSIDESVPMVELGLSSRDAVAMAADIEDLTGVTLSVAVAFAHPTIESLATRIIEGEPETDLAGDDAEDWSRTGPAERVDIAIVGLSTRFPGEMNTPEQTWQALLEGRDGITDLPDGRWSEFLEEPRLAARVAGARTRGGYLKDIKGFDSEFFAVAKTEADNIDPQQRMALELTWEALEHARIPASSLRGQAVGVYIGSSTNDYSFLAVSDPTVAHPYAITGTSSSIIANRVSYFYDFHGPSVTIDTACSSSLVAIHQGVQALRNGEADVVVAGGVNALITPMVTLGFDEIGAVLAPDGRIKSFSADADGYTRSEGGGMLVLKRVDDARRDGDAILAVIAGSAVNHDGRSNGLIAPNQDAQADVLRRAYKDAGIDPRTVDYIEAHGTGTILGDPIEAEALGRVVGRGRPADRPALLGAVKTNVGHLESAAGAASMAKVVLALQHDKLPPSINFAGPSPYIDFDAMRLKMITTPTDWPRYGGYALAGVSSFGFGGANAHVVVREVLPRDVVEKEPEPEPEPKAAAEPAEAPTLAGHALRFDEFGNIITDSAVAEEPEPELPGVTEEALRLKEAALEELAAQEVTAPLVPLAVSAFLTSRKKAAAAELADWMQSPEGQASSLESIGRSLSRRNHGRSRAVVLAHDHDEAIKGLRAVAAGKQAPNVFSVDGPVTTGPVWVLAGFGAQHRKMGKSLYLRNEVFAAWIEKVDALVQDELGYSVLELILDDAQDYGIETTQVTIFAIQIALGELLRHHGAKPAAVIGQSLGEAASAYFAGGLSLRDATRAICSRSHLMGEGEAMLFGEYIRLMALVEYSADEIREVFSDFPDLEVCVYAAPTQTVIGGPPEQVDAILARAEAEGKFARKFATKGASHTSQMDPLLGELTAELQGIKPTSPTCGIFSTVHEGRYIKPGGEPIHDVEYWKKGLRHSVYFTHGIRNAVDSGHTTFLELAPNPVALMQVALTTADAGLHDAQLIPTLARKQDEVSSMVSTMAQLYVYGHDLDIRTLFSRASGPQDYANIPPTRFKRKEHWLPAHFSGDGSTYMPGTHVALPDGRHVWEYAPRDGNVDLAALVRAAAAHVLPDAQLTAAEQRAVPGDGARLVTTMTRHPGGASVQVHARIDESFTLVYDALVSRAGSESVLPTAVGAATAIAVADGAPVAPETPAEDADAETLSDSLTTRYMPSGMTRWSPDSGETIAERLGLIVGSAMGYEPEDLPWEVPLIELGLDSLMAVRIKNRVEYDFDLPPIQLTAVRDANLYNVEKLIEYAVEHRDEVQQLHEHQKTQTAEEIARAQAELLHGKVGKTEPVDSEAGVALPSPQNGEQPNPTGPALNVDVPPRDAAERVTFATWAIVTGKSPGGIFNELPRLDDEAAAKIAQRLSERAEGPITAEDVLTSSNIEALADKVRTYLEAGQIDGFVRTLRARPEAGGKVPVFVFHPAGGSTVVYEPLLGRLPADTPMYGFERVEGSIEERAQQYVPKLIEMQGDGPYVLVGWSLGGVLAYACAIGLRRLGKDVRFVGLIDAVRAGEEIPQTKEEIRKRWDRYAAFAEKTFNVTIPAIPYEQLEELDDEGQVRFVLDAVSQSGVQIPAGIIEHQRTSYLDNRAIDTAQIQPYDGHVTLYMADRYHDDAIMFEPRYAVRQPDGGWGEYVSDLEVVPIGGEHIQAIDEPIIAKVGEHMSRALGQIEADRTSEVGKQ

The values are deposited in ChEMBL (CHEMBL3988442, “University of Dundee, Small-Polar-MMV Screening Library” (2021)).

MtTrpRS: 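Tryptophan-tRNA ligase, Mycobacterium tuberculosis (UniProt P9WFT3). Enzyme assay of tryptophanyl-tRNA synthetase; the read-out is not stated. Compounds at 10 µM. Higher most likely means stronger inhibition; the record gives no direction and few retests gave an IC50. Size under these conditions: about 65,000 compounds, about 64 of them at 50% or above in at least one test.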
Pks13 thioesterase: 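Enzyme assay of the thioesterase domain of polyketide synthase 13; the read-out is not stated. Target: Polyketide synthase Pks13, Mycobacterium tuberculosis (UniProt I6X8D2). Compounds at 30 µM. Higher reads as stronger inhibition (inferred from which compounds were picked for retests). Size under these conditions: about 67,000 compounds, about 300 of them at 50% or above in at least one test.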

Each number is a percent effect as filed. The record does not define 0% and 100%; most values in the screen are far below 50% and negative numbers occur (in some assays of this library far below -100). The compounds are a random part of those screened. A dash means the value is not listed here; it may have been measured.

compound	MtTrpRS	Pks13 thioesterase
CCn1ccc(NC(=O)CCn2nc(C)c3ccccc32)n1	1.655	-1.456
O=C(C1CC1)N1CCC2(CCN(Cc3cccc(F)c3)CC2)CC1	-1.952	-11.24
CCN1CCN(C(=O)CCC2CCN(C(C)CSC)CC2)CC1 (stereo not given)	-4.495	4.458
CN(C)C(=O)CNC(=O)c1ccc2ccc(N(C)CC3CC3)n2c1	-3.151	-5.684
CC(CNC(=O)N1CCNC(=O)CC1)Cc1cccs1 (stereo not given)	-2.422	0.95
Cc1ccccc1CC1(C(=O)O)CCCN(c2ncccn2)C1 (stereo not given)	0.8542	2.405
CCCOC(=O)c1ccc(-c2ccc(/C=C3\C(=O)NC(=N)N3C)o2)cc1	-1.295	16.89
Cc1ccc(N2CCCN(C(=O)C3(C#N)CCCCC3)CC2)nn1	1.572	-8.848
CC(C)c1n[nH]c(C2CN(C(=O)Cn3ccccc3=O)CCO2)n1 (stereo not given)	-1.278	0.7146
COc1ccc(CCN2CCN(C(=O)c3scnc3C)CC2)cc1	1.165	-21.08
CCc1ccc(C(=O)NC2CCN(c3cnn(C)c3)C2=O)o1 (stereo not given)	2.85	-18.31
CN(Cc1noc2c1CCCC2)C(=O)Nc1cncc(F)c1	5.125	-0.67
[O-][S+](CCN1CCc2[nH]nc(C(F)(F)F)c2C1)c1ccccc1 (stereo not given)	-7.627	4.562
c1ncn(CC2CN(CC3CCCCC3)CCO2)n1 (stereo not given)	2.896	-9.775
O=C(c1ccc(C2CCCN2)s1)N1CC=CC1 (stereo not given)	-5.093	-14.8
O=C(c1ccc[nH]1)N1CCc2c(cccc2S(=O)(=O)N2CCOCC2)C1	7.195	-3.331
Cc1ncc(CNC(=O)N(C)Cc2ccc([S+](C)[O-])cc2)s1 (stereo not given)	-3.086	-33.52
Cc1nc(CN2CCN(C(=O)c3c(C)noc3C)CC2)cs1	-1.319	0.8693
CCC(C)NC(=O)CS(=O)(=O)Cc1cc(C)ccc1C (stereo not given)	1.04	-13.97
c1cc(CNc2nnc(Cc3ccsc3)o2)cs1	7.843	-29.14
CNS(=O)(=O)c1ccc(CNC(=O)N(C)C(C)COC)cc1 (stereo not given)	-2.571	-2.463
Cc1ccc(O)c(CNC2CCc3nc(C)nn3C2)n1 (stereo not given)	2.348	-3.443
CC(C)c1nccn1-c1cncc(C2CCCN2Cc2cccnc2)n1 (stereo not given)	-4.008	7.181
CCCc1nc(C)c(CN2CC3(CCOC3)CCC2=O)s1 (stereo not given)	0.8489	-28.49
Cn1nc(CNc2ncccn2)c2c1CN(c1cnccn1)CC2	-	0.4739
Cc1nn(C)c(N(C)C)c1CNC(C)Cc1c(F)cccc1F (stereo not given)	2.274	-8.356
CN(C)c1nc2c(c(=O)[nH]1)CCN(C(=O)c1ccc(=O)[nH]c1)C2	-1.955	-30.95
Cc1nc(CN2C[C@@H](NS(=O)(=O)N(C)C)[C@H](C(C)C)C2)cs1	-3.625	-27.41
COc1ccc(S(=O)(=O)NCCn2cnc(C)cc2=O)cc1C	-0.6958	-2.258
O=C(c1cccnc1)N1CC(S(=O)(=O)c2ccc(Cl)cc2)C1	4.491	-
Cc1cc(N2CCC3(CCCN(CCO)C3=O)C2)nc(C)c1C#N (stereo not given)	4.897	-0.9895
CC(c1ccccc1F)N(CC(N)=O)C1CC1 (stereo not given)	-6.965	-21.7
Cc1ncsc1CCC(=O)NC1CCN(c2ccc(Cl)nn2)CC1	-7.67	8.088
NC(=O)CN1CCC(Nc2ccnc3ccc(Cl)cc23)CC1	5.982	-4.169
O=C(C1CCC2(CCN(c3nncs3)CC2)CO1)N1CCCC1 (stereo not given)	-6.673	-29.55
COc1nc2c(cc1C(=O)N1CC[C@H](CO)[C@@H](O)C1)CCC2	2.221	-17.88
COCCN(C)C1COC2(CCN(Cc3ccccn3)CC2)C1 (stereo not given)	-3.313	-14.45
CCn1c(CN(C)C(=O)c2ccc(N(C)C)nc2)nc2ccccc21	-3.753	-3.73
Cc1n[nH]c(=O)c2c(NC(=O)CN3CCOC(C)C3)oc(C)c12 (stereo not given)	0.9651	-7.622
CCNc1ncc(C(=O)N(C)Cc2nc3ccccc3n2C)cn1	-6.262	-0.8351
COc1ncccc1-c1nc(-c2ccccn2)nn1C1CCS(=O)(=O)C1 (stereo not given)	-4.61	-14.63
Cc1ccc2c(c1)CCC2NCc1c(C)nn(C)c1N1CCOCC1 (stereo not given)	2.292	-6.464
COC(=O)c1ccc(Cn2cccc(C(F)(F)F)c2=O)s1	-1.816	-16.77
Cc1c(C)n(-c2ccccn2)c2nc3c(c(N)c12)CCCC3	2.412	-42.7
CC(C)NC(=O)c1ccc2c(c1)C1(CCN(C(C)C)CC1)C(=O)N2	3.539	-17.79
CCc1nnc(SC2CCCN(c3cnn(C)c3)C2=O)n1C (stereo not given)	0.1961	-24.2
CCn1ccnc1CN(C)c1cc(C2CC2)ncn1	0.1324	-0.1404
O=S1(=O)CCC(N(Cc2nc(-c3ccccn3)no2)Cc2cccs2)C1 (stereo not given)	-6.383	-7.416

The first 5 entries again:

| compound | MtTrpRS | Pks13 thioesterase |
|---|---|---|
| `CCn1ccc(NC(=O)CCn2nc(C)c3ccccc32)n1` | 1.655 | -1.456 |
| `O=C(C1CC1)N1CCC2(CCN(Cc3cccc(F)c3)CC2)CC1` | -1.952 | -11.24 |
| `CCN1CCN(C(=O)CCC2CCN(C(C)CSC)CC2)CC1` (stereo not given) | -4.495 | 4.458 |
| `CN(C)C(=O)CNC(=O)c1ccc2ccc(N(C)CC3CC3)n2c1` | -3.151 | -5.684 |
| `CC(CNC(=O)N1CCNC(=O)CC1)Cc1cccs1` (stereo not given) | -2.422 | 0.95 |